US20230069835A1 (ACADEMIA SINICA, published 2023)
Results are given in words; binding and its absence hold for the method and conditions named. In cells and extracts the contact can be indirect. Some results given as binding are weak or reduced against the parent protein; the word gives no strength.

Legend:
[1] = molecular target: T1, microsomal triglyceride transfer protein (MTTP), endogenous, in mouse intestinal epithelial cell lysates (mouse) (UniProt O08601); test: co-immunoprecipitation from IEC lysates with MTTP antibody
T1 sequence (looked up): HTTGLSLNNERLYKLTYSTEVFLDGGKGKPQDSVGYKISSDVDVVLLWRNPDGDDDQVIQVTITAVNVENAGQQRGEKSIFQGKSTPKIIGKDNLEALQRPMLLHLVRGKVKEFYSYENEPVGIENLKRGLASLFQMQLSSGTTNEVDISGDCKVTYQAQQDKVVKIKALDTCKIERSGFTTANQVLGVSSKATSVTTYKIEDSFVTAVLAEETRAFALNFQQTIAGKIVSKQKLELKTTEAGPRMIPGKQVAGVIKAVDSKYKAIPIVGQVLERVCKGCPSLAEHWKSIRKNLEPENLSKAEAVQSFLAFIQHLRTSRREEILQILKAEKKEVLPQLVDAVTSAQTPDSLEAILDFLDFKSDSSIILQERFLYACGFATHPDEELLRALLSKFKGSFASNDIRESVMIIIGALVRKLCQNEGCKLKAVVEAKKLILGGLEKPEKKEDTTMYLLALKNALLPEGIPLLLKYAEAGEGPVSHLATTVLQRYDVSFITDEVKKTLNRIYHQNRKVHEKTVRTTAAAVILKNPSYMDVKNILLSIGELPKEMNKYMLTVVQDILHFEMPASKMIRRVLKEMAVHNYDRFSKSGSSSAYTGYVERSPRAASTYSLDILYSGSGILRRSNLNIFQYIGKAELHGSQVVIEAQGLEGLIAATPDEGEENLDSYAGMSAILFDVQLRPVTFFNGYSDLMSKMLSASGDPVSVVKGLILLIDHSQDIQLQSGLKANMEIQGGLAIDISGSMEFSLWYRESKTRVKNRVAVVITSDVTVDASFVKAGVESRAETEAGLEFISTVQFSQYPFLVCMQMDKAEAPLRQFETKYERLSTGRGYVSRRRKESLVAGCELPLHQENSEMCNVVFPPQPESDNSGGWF

[2] = molecular target: T1, microsomal triglyceride transfer protein (MTTP), endogenous, in mouse intestinal epithelial cell lysates (mouse); test: co-immunoprecipitation from total intestinal cell lysates, immunoblot (FIG. 2A)
[3] = molecular target: T1, microsomal triglyceride transfer protein (MTTP), endogenous, in mouse intestinal epithelial cell lysates (mouse); test: co-immunoprecipitation from IEC lysates with PRAP1- or MTTP-specific antibody, immunoblot

Measured: binding

B1: endogenous wild-type PRAP1 in intestinal epithelial cells of control (PRAP1+/+) mice (protein)
chain: APAHQVPVKTKGKHVFPEQETEKVWDTRALEPLEKDNQLGPLLPEPKQKPAAAEEKRPDAMTWVETEDILSHLRSPLQGPELDLDSIDHPMSDDVQDEEVPQSRPILYRQVLQGPEEDLDHLAHSMEDS
binds: all assays above
